# Target: T1, Amine oxidase [flavin-containing] B (Rattus norvegicus, UniProt P19643)
# T1 sequence (P19643 whole entry): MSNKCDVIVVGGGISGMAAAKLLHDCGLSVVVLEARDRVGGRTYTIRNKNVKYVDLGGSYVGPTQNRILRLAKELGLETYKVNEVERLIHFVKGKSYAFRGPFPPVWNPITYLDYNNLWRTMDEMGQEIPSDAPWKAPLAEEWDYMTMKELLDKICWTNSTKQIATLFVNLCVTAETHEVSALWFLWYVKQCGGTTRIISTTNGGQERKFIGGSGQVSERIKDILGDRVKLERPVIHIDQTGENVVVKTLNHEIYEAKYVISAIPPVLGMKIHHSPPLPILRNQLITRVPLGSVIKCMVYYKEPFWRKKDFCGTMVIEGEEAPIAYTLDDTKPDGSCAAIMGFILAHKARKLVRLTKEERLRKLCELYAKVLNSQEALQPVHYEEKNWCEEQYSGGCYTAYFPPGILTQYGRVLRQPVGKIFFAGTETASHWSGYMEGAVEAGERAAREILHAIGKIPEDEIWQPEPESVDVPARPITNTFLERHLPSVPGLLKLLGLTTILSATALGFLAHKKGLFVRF
row,SMILES,IC50
1,O=c1cc(-c2ccccc2)c2ccc(OCc3ccccc3)cc2o1,3980 nM
2,O=c1oc2cc(OCc3ccccc3)ccc2c2c1CCCC2,13.5 nM

# From ChEMBL document CHEMBL1137393, “Impact of species-dependent differences on screening, design, and development of MAO B inhibitors” (J Med Chem, 2006)
